The supplement of paper PMC12578635
± gives the standard deviation of the averaged measurements. This is one part of the list. Repeats are few or missing, and single values can be far off.

tested on: RAW 264.7 macrophages infected with S. aureus JE2-lux; test: host macrophage viability (CellTiter-Fluor) relative to DMSO vehicle; higher = more viable host cells; conditions: 10 µM; treatment time 4 h; gentamicin 50 µg/ml

Row | SMILES | host macrophage viability [%]
1 | C=CCn1c(=O)c2c3c(sc2n2c(Nc4ccccc4)nnc12)CCCC3 | 118
2 | COc1cccc2cc(C(=O)NCc3ccc4c(c3)OCO4)c(=O)oc12 | 108
3 | CC(=O)Nc1ccc2nc(NC(=O)C(C)NS(=O)(=O)c3ccc(C)cc3)sc2c1 (centres undefined) | 108
4 | CCOc1ccccc1-c1cc(C(=O)Nc2ccc3c(c2)nc(CC)n3C)[nH]n1 | 116
5 | Cc1oc(-c2ccno2)cc1S(=O)(=O)N1c2ccccc2CC1C (centres undefined) | 99.7
6 | O=C(CCn1c(=S)[nH]c2ccccc2c1=O)N1CCOCC1 | 131
7 | Cc1ccc(-n2ccnc(NCCC(C)C)c2=O)cc1Cl | 130
8 | CCOc1ccc(NC(=O)Cn2nnc(C(=O)Nc3ccccc3F)c2N)cc1 | 107
9 | COc1cccc(NC(=S)Nc2c(C)n(C)n(-c3ccccc3)c2=O)c1 | 117
10 | Nn1c(SCc2ccccc2)nnc1-c1ccco1 | 104
11 | COc1ccc([N+](=O)[O-])cc1NC(=O)CCS(=O)(=O)c1ccc(F)cc1 | 114
12 | O=C1C=C(Nc2ccc(Cl)cc2)C(=O)N1c1cccc(C(F)(F)F)c1 | 130
13 | Cc1ccc(-n2ccnc2SCc2nc(-c3ccc(Cl)cc3)no2)cc1 | 67.7
14 | COc1cccc2sc(NC(=O)c3coc4ccccc4c3=O)nc12 | 102 ± 7.6
15 | O=C(CCCS(=O)(=O)c1ccccc1)Nc1nc2ccc([N+](=O)[O-])cc2s1 | 117
16 | Cc1ccc2cc3c(nc2c1)sc1c(SCC(=O)NCc2ccccc2)ncnc13 | 129
17 | Cn1c(SCC(=O)NCCCc2ccccc2)nc2c(-c3ccccc3)csc2c1=O | 126
18 | CC1(C(=O)Nc2ncc(Cc3cccc(C(F)(F)F)c3)s2)Cc2ccccc2C(=O)O1 (centres undefined) | 127
19 | CCc1ccccc1NC(=O)Cc1c(C)nn(-c2nc(-c3ccc(C)cc3)cs2)c1O | 122
20 | COc1cccc(NC(=O)Cn2c(C)cc(=O)n3nc(-c4ccccc4C)nc23)c1 | 118
21 | O=C(CC1Nc2ccccc2NC1=O)Nc1ccc(N2CCCCC2)cc1 (centres undefined) | 113
22 | Cc1cc(NC(=O)NCCCSc2nnc(C)s2)no1 | 106
23 | C=CCOc1ccccc1NC(=O)c1c(-c2ccncc2)noc1C | 90.4
24 | COc1ccc(S(=O)(=O)N(C(C)=O)c2ccc3oc(C)c(C(C)=O)c3c2)cc1 | 114
25 | CC1Cc2cc(-c3nn(-c4ccccc4)cc3/C=C3\SC(=S)NC3=O)ccc2O1 (centres undefined) | 105
26 | CCOC(=O)CSC1=C(C#N)C(c2ccccc2[N+](=O)[O-])C(C(=O)OC)C(=O)N1 (centres undefined) | 133

In the list so far, these contain a furan ring, fused or not.
Row | SMILES | host macrophage viability [%]
5 | Cc1oc(-c2ccno2)cc1S(=O)(=O)N1c2ccccc2CC1C (centres undefined) | 99.7
10 | Nn1c(SCc2ccccc2)nnc1-c1ccco1 | 104
24 | COc1ccc(S(=O)(=O)N(C(C)=O)c2ccc3oc(C)c(C(C)=O)c3c2)cc1 | 114

Next records

Row | SMILES | host macrophage viability [%]
27 | O=C(O)c1ccc2c(c1)C(=O)N(CCCN1CCOCC1)C2=O | 128
28 | COc1ccc(NC(=O)N2c3ccccc3CC2C(N)=O)c(OC)c1 (centres undefined) | 113
29 | COc1ccc(-n2ccn(CC(=O)Nc3ccc(Br)cc3F)c(=O)c2=O)cc1Cl | 119
30 | COc1ccc(C)c2sc(N(Cc3ccccc3)C(=O)c3ccco3)nc12 | 124
31 | COCCNC(=O)COc1ncnc2onc(-c3ccc(F)cc3)c12 | 128
32 | COc1ccccc1Cn1c(=S)[nH]c2cc(C(=O)N3CCCCC3)ccc2c1=O | 109
33 | Cn1ncc2c1CCc1sc(NC(=O)CCC3CCCCC3=O)nc1-2 (centres undefined) | 108
34 | Cc1oc2ncnc(N3CCCC(C(=O)Nc4ccc(F)c(F)c4)C3)c2c1C (centres undefined) | 106
35 | CC1CCc2c(sc3ncn(C4CCN(C(=O)c5cc[nH]n5)CC4)c(=O)c23)C1 (centres undefined) | 94.9
36 | COc1ccc(C(=O)NCCc2cc3c(C)ccc(C)c3[nH]c2=O)c(OC)c1 | 122
37 | O=C(CSCc1ccccc1)Nc1cccc2c1C(=O)NC2=O | 103
38 | CC(CCc1ccccc1)NC(=O)Cn1c2c(c(=O)n3nc(-c4ccccc4)nc13)CCC2 (centres undefined) | 104
39 | Cc1cc(Oc2ncnc(N)c2[N+](=O)[O-])cc(C(C)C)c1 | 125
40 | CC(C)[C@H](Cn1nc(C2CC2)ccc1=O)NC(=O)c1cnn2cccnc12 | 92.8
41 | COc1ccc(NC(=O)C(=O)Nc2cc3c4c(c2)CC(=O)N4CCC3)cc1 | 122
42 | O=C(Nc1ccc2c(c1)CCCN2C(=O)C1CC1)c1ccccc1C(F)(F)F | 112
43 | O=C(CN1CCc2nc(N3CCCC3)[nH]c(=O)c2C1)Nc1nccs1 | 108
44 | COc1cc(NC(=O)c2cnn3c4c(cnc23)C(=O)CC(C)(C)C4)cc(OC)c1 | 116
45 | Cc1ccc(NC(=O)c2ccnc(Nc3ccc(F)cc3)c2)cc1 | 122
46 | COCCN(Cc1cc2ccc(C)c(C)c2nc1Cl)C(=O)Nc1ccccc1C | 98.3
47 | COC(=O)c1sc2ccccc2c1NC(=O)c1cc(Cl)ccc1[N+](=O)[O-] | 120 ± 3
48 | Nc1nc(SCC(=O)NCc2ccccc2)nc2sc3c(c12)CCC3 | 110
49 | CCOc1ccc(NC(=O)Nc2c(-c3cccnc3)[nH]c3ccccc23)cc1 | 113
50 | CC1=C(C(=O)OC2CCCCCCC2)C(c2ccccc2Cl)NC(=O)N1 (centres undefined) | 110
51 | COc1cc(C2CC(=O)Nc3c2cnn3-c2nc3ccccc3s2)ccc1OCc1ccc(C)cc1 (centres undefined) | 112
52 | CC(C)CCNC(=O)CSc1nc(-c2cccc(Cl)c2)nc2cc(=O)[nH]n12 | 131

Row | SMILES | host macrophage viability [%]
53 | CCOc1ccc(NC(=O)Cn2c3ccccc3n3c(=O)cc(-c4ccccn4)nc23)cc1 | 127
54 | Cc1cc(NS(=O)(=O)c2ccc(NC(=O)c3cnc4sccn4c3=O)cc2)nc(C)n1 | 103 ± 6.5
55 | COc1ccc2o/c(=N\c3sc4c(c3C(N)=O)CCCC4)c(C(N)=O)cc2c1 | 108
56 | COc1ccc(Cn2c(C)cn3c4c(=O)n(CCCO)c(=O)n(C)c4nc23)cc1 | 99.7
57 | O=C(Cn1cnc2c(cnn2-c2cccc(Cl)c2)c1=O)OCc1ccccc1 | 124
58 | Cc1ccccc1OCC(=O)Nc1ccccc1SCc1nnc(-c2ccccc2)o1 | 107
59 | Fc1cccc2sc(NCc3ccccc3)nc12 | 114 ± 5.1
60 | COc1ccc(CCNC(=O)c2cnc3c(C)cccc3c2O)cc1OC | 110
61 | Cc1cccnc1NC(=O)NC1CC(=O)N(c2ccc(Cl)cc2)C1 (centres undefined) | 114
62 | COc1ccc(-c2noc(N3CCC(C(=O)Nc4cccc(C)c4C)CC3)n2)cc1 | 122
63 | Cc1ccc(-n2nc3c(c2NC(=O)c2ccc(OC(C)C)cc2)CS(=O)C3)cc1 (centres undefined) | 123
64 | Cc1ccc2cc(CCNC(=O)c3ccc(Br)o3)c(=O)[nH]c2c1C | 130
65 | CCCN1CCC2(CC1)NC(=O)N(CC(=O)NCc1ccco1)C2=O | 110
66 | O=C(NCc1ccccc1)c1cnc2ccccc2c1O | 98.3
67 | Cc1cc2cc(CCNC(=O)C(C)Oc3ccccc3)c(=O)[nH]c2cc1C (centres undefined) | 119
68 | CCOC(=O)C1CCCN(C(=O)C(=O)c2c(C)n(C)c3ccccc23)C1 (centres undefined) | 95.52 ± 0.3
69 | CC1CCN(C(=O)Cn2c3c(c(=O)n4ncnc24)CCC3)CC1 | 99.2
70 | Cc1ccc(C)c(N(CC(=O)NCCc2ccccc2)C(=O)c2csnn2)c1 | 101
71 | CC(C)NC(=O)Cn1c2c(c(=O)n3ncnc13)CCC2 | 107
72 | CSc1nc2ccc3nc(NC(=O)c4ccc(C#N)cc4)sc3c2s1 | 107.9 ± 0.64
73 | COc1ccccc1N1CCN(c2nn3cnnc3c3ccccc23)CC1 | 112
74 | Cc1ccc(S(=O)(=O)Nc2ccc3nnc(-c4ccccc4)n3n2)c(C)c1 | 125
75 | COc1ccccc1C1Nc2ccc(Br)cc2[C@H]2OCCC[C@@H]12 (some centres undefined) | 110
76 | O=C1NC2=C(C(=O)N(CC3CCCO3)C2)C(c2ccccc2)N1 (centres undefined) | 109
77 | Cc1ccc(CNC(=O)CSc2nc(=O)[nH]cc2C)cc1 | 107
78 | CC1(C)CC(=O)C2=C(C1)OC(N)=C(C#N)C2c1cccs1 (centres undefined) | 103

Reprinted from the entries so far, 2 compounds:
Row | SMILES | host macrophage viability [%]
68 | CCOC(=O)C1CCCN(C(=O)C(=O)c2c(C)n(C)c3ccccc23)C1 (centres undefined) | 95.52 ± 0.3
69 | CC1CCN(C(=O)Cn2c3c(c(=O)n4ncnc24)CCC3)CC1 | 99.2

Following part

Row | SMILES | host macrophage viability [%]
79 | COc1ccc(-c2cc(=O)c3ccc(NC(C)=O)cc3o2)cc1 | 141
80 | Cc1nc2ccc3nc(NC(=O)/C=C/c4ccccc4Cl)sc3c2s1 | 131
81 | O=C(Nc1nc2c(cc3c4c(cccc42)CC3)s1)c1cc2ccccc2oc1=O | 117 ± 28
82 | CCOC(=O)C1CCN(c2nn3c(NC(C)(C)C)c(-c4cccc(F)c4)nc3s2)CC1 | 113
83 | Cc1cc(N2C(=O)c3ccccc3C2C(=O)NCCC(C)C)ccc1Br (centres undefined) | 125
84 | CCCOc1ccc(Oc2nc(C)nc3sc(C(=O)OCC)c(C)c23)cc1 | 118
85 | O=C(CC1(O)C(=O)Nc2ccc(Br)cc21)c1ccccn1 (centres undefined) | 116 ± 16
86 | Cc1ccc(NC(=O)N(Cc2ccco2)Cc2cc3cccc(C)c3nc2Cl)cc1 | 114
87 | Cc1cccn2cc(-c3ccc(NC(=O)c4ccco4)cc3)nc12 | 117
88 | O=C(NCc1cccnc1)C(=O)NCC1OCCN1C(=O)c1ccc(Cl)cc1 (centres undefined) | 107
89 | O=c1[nH]c2c(s1)C(c1ccc(O)cc1)C1C3CCC(C3)C1S2 (centres undefined) | 112
90 | O=C(Cn1c2ccccc2n2c(=O)cc(-c3ccccc3)nc12)Nc1ccccc1C(F)(F)F | 134
91 | COc1cccc(C(=O)Nc2nc3ccc([N+](=O)[O-])cc3s2)c1OC | 90.4
92 | Cc1ccc(Nc2c(C(=O)NC3CCCC3)cnc3c2c(C)nn3C)cc1 | 97.3
93 | O=C(Nc1ccc2c(c1)C(=O)NC2=O)c1cccc(C(F)(F)F)c1 | 122
94 | O=C(CC1Nc2cccc3cccc(c23)NC1=O)Nc1ccc(F)cc1 (centres undefined) | 115
95 | CCCCN1C(=O)C(C#N)=C(C)/C(=C/Nc2ccccc2C(=O)O)C1=O | 122
96 | COc1ccc(N2CCCS2(=O)=O)cc1NC(=O)c1cccc(C(F)(F)F)c1 | 108
97 | CCc1ccc(-c2cc(C(=O)N/N=C(\C)c3ccncc3)[nH]n2)cc1 | 99.8
98 | O=[N+]([O-])c1ccc2oc(SCc3nc4ccccn4c3Br)nc2c1 | 120
99 | Nc1c(C(=O)Nc2ccc(Cl)c(Cl)c2)c2ccccn2c1C(=O)c1cccs1 | 125
100 | CCCN1CCN(c2nn3nnnc3c3ccccc23)CC1 | 119
101 | Cc1cc(N2CCN(c3ccc(O)cc3)CC2)nc(-n2nc(C)cc2C)n1 | 121
102 | O=C1NC(=S)S/C1=C\c1nc2ccccc2[nH]1 | 102
103 | Cc1cc(C)nc(-n2[nH]c3nccc(-c4ccc5c(c4)OCO5)c3c2=O)n1 | 122
104 | COc1cc(NC(=O)Cn2c(=O)n3nc(-c4ccc(C)cc4)nc3c3ccccc32)cc(OC)c1 | 112
